Patent US20040225108 (published 2004)

Assay: general procedure: solution-phase peptide synthesis; DCCI/HOBt
Conditions: 2TFA (linear octapeptides XVI, XIX)

“Boc-(D)-Phe-Cys(Acm)-Phe-(D)-Trp-Lys(Boc)-Thr-Cys(Acm)-Thr-OL” gave a step yield (coupling step) of 88%.

“Boc-(D)-Phe-Cys(Acm)-Phe-(D)-Trp-Lys(Boc)-Thr-Cys(Acm)-Thr-OMe” showed a step yield (coupling step) of 79%.

Boc-[dF]C(Acm)F[dW]K(Boc)T-OH gave a step yield (late stage modification step) of 97%.

Substance Boc-[dF]C(Acm)F[dW]K(Boc)T-OMe has a step yield (coupling step) of 76.3%.

Work on “H-(D)-Phe-Cys(Acm)-Phe-(D)-Trp-Lys-Thr-Cys(Acm)-Thr-OL. 2TFA” yielded a step yield (late stage modification step, run 1) of 80% and a step yield (late stage modification step, run 2) of 69%.

For “H-(D)-Phe-Cys(Acm)-Phe-(D)-Trp-Lys-Thr-Cys(Acm)-Thr-OMe. 2TFA”, the step yield (late stage modification step) was 91%.

For octreotide, the oxidative folding yield (oxidative folding step, on linear octapeptide XVI) was 84%.

[ ]: non-standard residue; d: D form. The star is where a group is joined. Boc = CC(C)(C)OC(=O)*; Acm = CC(=O)NC*
